PubChem BioAssay AID1053208 | Peter MacCallum Cancer Centre | 2014
This is an unselected part of about 17,000 deposited reagents. 788 of all reagents (4.7%) count as active. 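Calls rest on z-score classes alone; an extra cut-off of viability at most 70% of control was not applied to them.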 Some reagents were tested in more than one well and are listed for each. Not all columns of the deposit are shown.

- Aim: 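Genes whose silencing cuts survival of bone tumour cells only with doxorubicin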 (primary screen)
- System: mouse osteosarcoma cells, early-passage culture from an engineered mouse model of fibroblastic bone tumour
- Reagent: siRNA pool against mouse genes, 40 nM
- Time to read-out: about 120 h (48 h before drug, then 72 h with drug)
- Challenge: doxorubicin 100 nM for 72 h, roughly 30-40% inhibitory dose
- Detection: 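Luminescent ATP signal taken as viability with or without 100 nM doxorubicin for 72 h; mean of two wells set against non-targeting siRNA and turned into robust z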
- Reading the numbers: viability z-score with doxorubicin: higher = more viable cells under doxorubicin; viability z-score without drug: higher = more viable cells with knock-down alone
- Rule for the call: 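Called active if knock-down leaves viability unchanged without drug (z within -2 to 2) but lowers it with doxorubicin (z at or under -2)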

Lpin1 (lipin 1) | combined z-score class: high cell count with doxorubicin only; viability z-score with doxorubicin: 2.25; viability z-score without drug: 1.69; activity call: inactive
a (nonagouti) | combined z-score class: low cell count with doxorubicin only; viability z-score with doxorubicin: -2.02; viability z-score without drug: -1.18; activity call: active
Cxcl17 (C-X-C motif chemokine ligand 17) | combined z-score class: no change with or without drug; viability z-score with doxorubicin: 0; viability z-score without drug: 1.18; activity call: inactive
Prpf38b | combined z-score class: no change with or without drug; viability z-score with doxorubicin: 0.22; viability z-score without drug: 0.51; activity call: inactive
H2-M10.6 (histocompatibility 2, M region locus 10.6) | combined z-score class: no change with or without drug; viability z-score with doxorubicin: 0.79; viability z-score without drug: 0.17; activity call: inactive
Myo18a (myosin XVIIIA) | combined z-score class: no change with or without drug; viability z-score with doxorubicin: 1.12; viability z-score without drug: -0.17; activity call: inactive
Nub1 (negative regulator of ubiquitin-like proteins 1) | combined z-score class: no change with or without drug; viability z-score with doxorubicin: 0.22; viability z-score without drug: 0.17; activity call: inactive
Frmd8 (FERM domain containing 8) | combined z-score class: no change with or without drug; viability z-score with doxorubicin: -1.8; viability z-score without drug: 1.35; activity call: inactive
Cyp4f16 (cytochrome P450, family 4, subfamily f, polypeptide 16) | combined z-score class: no change with or without drug; viability z-score with doxorubicin: 1.35; viability z-score without drug: 0.51; activity call: inactive
Rgcc (regulator of cell cycle) | combined z-score class: high cell count without drug only; viability z-score with doxorubicin: 1.46; viability z-score without drug: 3.88; activity call: inactive
Slc1a2 | combined z-score class: no change with or without drug; viability z-score with doxorubicin: -1.57; viability z-score without drug: -1.35; activity call: inactive
Dnajb4 (DnaJ heat shock protein family (Hsp40) member B4) | combined z-score class: no change with or without drug; viability z-score with doxorubicin: 0; viability z-score without drug: 0.84; activity call: inactive
Or6c206 (olfactory receptor family 6 subfamily C member 206) | combined z-score class: high cell count without drug only; viability z-score with doxorubicin: 0.45; viability z-score without drug: 2.19; activity call: inactive
Ifitm2 (interferon induced transmembrane protein 2) | combined z-score class: no change with or without drug; viability z-score with doxorubicin: -1.46; viability z-score without drug: -0.17; activity call: inactive
Prpf40b (pre-mRNA processing factor 40B) | combined z-score class: no change with or without drug; viability z-score with doxorubicin: 0; viability z-score without drug: -0.17; activity call: inactive
Scml2 (Scm polycomb group protein like 2) | combined z-score class: no change with or without drug; viability z-score with doxorubicin: -1.35; viability z-score without drug: 0; activity call: inactive
Ripk3 (receptor-interacting serine-threonine kinase 3) | combined z-score class: no change with or without drug; viability z-score with doxorubicin: 0.56; viability z-score without drug: 0.84; activity call: inactive
Or7e170 (olfactory receptor family 7 subfamily E member 170) | combined z-score class: no change with or without drug; viability z-score with doxorubicin: 0; viability z-score without drug: 0.17; activity call: inactive
Cd3e (CD3 antigen, epsilon polypeptide) | combined z-score class: no change with or without drug; viability z-score with doxorubicin: 1.01; viability z-score without drug: -0.34; activity call: inactive
Cd3e (CD3 antigen, epsilon polypeptide) | combined z-score class: no change with or without drug; viability z-score with doxorubicin: 0; viability z-score without drug: -1.01; activity call: inactive
